The supplement of paper PMC5949888
± gives the standard deviation of the averaged measurements. Most values lie at the floor of the assay. Slopes are relative: functional sequences can read slightly below zero.

Each substance was assayed on Saccharomyces cerevisiae PS128 hsf1 delta, HSF1(1-493) fusion (assay: growth estimate (transactivation domain function in HSF1 fusion, heat-shock survival) (a.u. (slope of normalised read count over time)); higher = stronger growth at 37°C, i.e. more transactivation activity). Details: library: random library.
For KLIDYTLSISDMVVYPFRRY, the growth estimate was < -0.25. For KLIIRASRISQSPSPLANNR, the growth estimate was < -0.25. For KLKTCSELAYAPTKLWVY, the growth estimate was < -0.25. KLLRQGVKAAGGC was tested, and the growth estimate was < -0.25. With KLNWVSSEVEA the growth estimate was < -0.25. KLPIDAEPIGLDIVLRSSTS was tested, and the growth estimate was < -0.25. For KLREDDMGGTV, the growth estimate was < -0.25. For KLRFTRP, the growth estimate was < -0.25. With KLRTLRI the growth estimate was < -0.25. For KLRYGDCPAPRYLPRDLI, the growth estimate was < -0.25. KLSRAETRNSLRGWPGLFRL was tested, and the growth estimate was < -0.25. In the case of KLSTPAARVTGVSTHSLR, the growth estimate is reported as < -0.25. In the case of KLTSYTDTSSIDPPGTWRKY, the growth estimate is reported as < -0.25. KMADNQE was tested, and the growth estimate was < -0.25. In the case of KMKSRADGF, the growth estimate is reported as < -0.25. With KMLG the growth estimate was < -0.25. With KMPIDQRSNVMMEHSRETKS the growth estimate was < -0.25. KMVAWK was tested, and the growth estimate was < -0.25. For KMVCFA, the growth estimate was < -0.25. In the case of KNAYLAGCGCYNQGA, the growth estimate is reported as < -0.25. KNCLSCCRQNFFVKVMPQSI was tested, and the growth estimate was < -0.25. KNGRHW was tested, and the growth estimate was < -0.25. KNGRKHDTHKSVTRFHPHGS was tested, and the growth estimate was < -0.25. In the case of KNHKQLD, the growth estimate is reported as < -0.25. For KNHMRGMSTTVSGAQITSGS, the growth estimate was -0.246. In the case of KNVNQPSQS, the growth estimate is reported as < -0.25. KPAGGILVEEFGESLHAAGP was tested, and the growth estimate was < -0.25. With KPASLASLCVMGQRFGLGAH the growth estimate was < -0.25. In the case of KPCSTAGIIVGNRYPTAGRV, the growth estimate is reported as < -0.25. KPCVVEA was tested, and the growth estimate was < -0.25. KPDKAPGRDPIWGPFHSALT was tested, and the growth estimate was < -0.25. With KPDPTGRSPRRAYRAGPV the growth estimate was < -0.25. For KPEVGY, the growth estimate was < -0.25. With KPFILGTGHPRSPDTL the growth estimate was < -0.25. In the case of KPGCRQ, the growth estimate is reported as < -0.25. In the case of KPGPLCAAGSSTNLLVTAIV, the growth estimate is reported as < -0.25. For KPKFSRVEAGHRLIAIARAF, the growth estimate was -0.228. With KPLGFMRYQGHDP the growth estimate was < -0.25. In the case of KPLTLAPS, the growth estimate is reported as < -0.25. KPPES was tested, and the growth estimate was < -0.25. With KPPHRWMR the growth estimate was < -0.25. In the case of KPPLGI, the growth estimate is reported as < -0.25. With KPQVIVHPSALRHGLVRTNG the growth estimate was < -0.25. KPRFPIDGAKVVDGNPRHPE was tested, and the growth estimate was < -0.25. KPRSYT was tested, and the growth estimate was < -0.25. In the case of KPS, the growth estimate is reported as < -0.25. Work on KPSEVEPFVRFTLEPLWVGQ yielded a growth estimate of -0.228. With KPSRFLVRVWLSTLVYRFGT the growth estimate was < -0.25. With KPTL the growth estimate was < -0.25. For KPWNAGICYTRYLSVF, the growth estimate was < -0.25. In the case of KPYVSRLATAANNAGQD, the growth estimate is reported as < -0.25. With KQCGHSTSSRKCDSRCIYIC the growth estimate was < -0.25. For KQCSAKLLMHMVGFASLMGF, the growth estimate was < -0.25. For KQDSTSSVSAKMTAQRCIGL, the growth estimate was < -0.25. KQGYRSE was tested, and the growth estimate was < -0.25. For KQHVEGRSVKAD, the growth estimate was < -0.25. With KQKRRPISLCDTQQQPNIDA the growth estimate was < -0.25. In the case of KQQKVSNAALPPHSYLYHTS, the growth estimate is reported as < -0.25. In the case of KQRDLAVTLVTMCVRPGLSG, the growth estimate is reported as -0.245. With KQRDRP the growth estimate was < -0.25. KQSLLDGPRKSLSGMFLKPS was tested, and the growth estimate was < -0.25. In the case of KQTEPHPIDKRRMLNGPFHG, the growth estimate is reported as < -0.25. KQV was tested, and the growth estimate was < -0.25. In the case of KQWWGRGYAKQGLPGT, the growth estimate is reported as < -0.25. KRA was tested, and the growth estimate was -0.247 ± 0.0047. For KRALCMFKPKASNGPALSED, the growth estimate was < -0.25. In the case of KRASEV, the growth estimate is reported as < -0.25. With KREAPPAPEWSRE the growth estimate was < -0.25. KRFRV was tested, and the growth estimate was < -0.25. KRGTCSEQYSSLPAICLCAS was tested, and the growth estimate was < -0.25. In the case of KRIEKAVRLTCL, the growth estimate is reported as < -0.25. With KRKYRPGIRYHERTGCGLRR the growth estimate was -0.246. For KRL, the growth estimate was < -0.25. In the case of KRLIRPTWSFVYLQSVQIGT, the growth estimate is reported as < -0.25. In the case of KRLRSEPTSR, the growth estimate is reported as < -0.25. For KRMSIYSSRRLSPIGLS, the growth estimate was < -0.25. With KRNCRYNGPS the growth estimate was < -0.25. For KRPKSKCCSVGKPLGRRGRR, the growth estimate was < -0.25. For KRQAKFIYT, the growth estimate was < -0.25. In the case of KRQSSTLTEVNVIHG, the growth estimate is reported as < -0.25. In the case of KRRSRACTWKSIKSREQ, the growth estimate is reported as < -0.25. KRS gave a growth estimate of -0.231. KRSDL was tested, and the growth estimate was < -0.25. In the case of KRSKVTRRVAPIYMLHNVTI, the growth estimate is reported as < -0.25. For KRSSDARDIGRSCREAGITY, the growth estimate was < -0.25. With KRT the growth estimate was < -0.25. KRTRVLTDGEP was tested, and the growth estimate was < -0.25. In the case of KRVDTGQR, the growth estimate is reported as < -0.25. With KRVHYHLLATFMFKALTSRR the growth estimate was < -0.25. For KRVPASSCRTTAGY, the growth estimate was < -0.25. In the case of KRYGVPVICNA, the growth estimate is reported as < -0.25. KSAPRMISSWA was tested, and the growth estimate was < -0.25. KSASLGRCVHESVRLLSLDG was tested, and the growth estimate was < -0.25. With KSCLLCYVR the growth estimate was < -0.25. KSCRFAVLVPGIWPKRSCMG was tested, and the growth estimate was < -0.25. KSDALSIDRPFGEFLRIKAL was tested, and the growth estimate was < -0.25. With KSEAPLR the growth estimate was < -0.25. KSEEDRHGKEAMSLGSTLCG was tested, and the growth estimate was < -0.25. For KSELDIAEQFDTNTVASGDV, the growth estimate was < -0.25. KSELGTLLGPTNVARIPATF was tested, and the growth estimate was < -0.25. With KSGCFC the growth estimate was < -0.25. KSGDDYLGGRWRATSHTRAP showed a growth estimate of -0.229. In the case of KSGERRNTMSPLDNRQEQTQ, the growth estimate is reported as < -0.25. In the case of KSGHLLRGLSGNIGTWKWNT, the growth estimate is reported as -0.193. KSGQLSILSWFTACVKPSQS was tested, and the growth estimate was < -0.25. For KSGSGKAGH, the growth estimate was < -0.25. For KSGVDRRRPCPK, the growth estimate was < -0.25. In the case of KSGVGSDWLGILRVPGEQRG, the growth estimate is reported as < -0.25. KSHGRPVDWYVTGREEGVDV was tested, and the growth estimate was < -0.25. With KSHHEGSIPSGRDSSPALVA the growth estimate was < -0.25. KSIMTT was tested, and the growth estimate was < -0.25. KSLA was tested, and the growth estimate was < -0.25. With KSLKQVSAARFA the growth estimate was < -0.25. In the case of KSLNMDRSDLYVRDGGLRDR, the growth estimate is reported as < -0.25. With KSLVSCIEDVL the growth estimate was < -0.25. In the case of KSMLLKYYLVSSKL, the growth estimate is reported as < -0.25. For KSMLTASYRK, the growth estimate was < -0.25. In the case of KSNVGFSVITCVRPGYPAGL, the growth estimate is reported as < -0.25. For KSPYKISCQPALCGALWVRR, the growth estimate was < -0.25. With KSRSMRLIRKKEANERSQGS the growth estimate was < -0.25. KSSAVSLTLRPLGPNGKTQH was tested, and the growth estimate was < -0.25. For KST, the growth estimate was < -0.25. With KSTLAGRPFGSKR the growth estimate was < -0.25. With KSTRSGTGSAGPMRKKEFQH the growth estimate was < -0.25. In the case of KSTTSVSQLSCVRAKVIAPK, the growth estimate is reported as < -0.25. In the case of KSTVMGRLSW, the growth estimate is reported as < -0.25. For KTAFS, the growth estimate was < -0.25. In the case of KTASRGASLSCHDHFSSVAV, the growth estimate is reported as < -0.25. For KTCDLGGSYTRSRDGR, the growth estimate was < -0.25. In the case of KTDFSPK, the growth estimate is reported as < -0.25. Work on KTG yielded a growth estimate of -0.237. In the case of KTI, the growth estimate is reported as < -0.25. In the case of KTIRGTRC, the growth estimate is reported as < -0.25. With KTLFPK the growth estimate was < -0.25. In the case of KTMVNYMCIISNGCYNKVLY, the growth estimate is reported as < -0.25. KTNEMESFYTGNGLT gave a growth estimate of -0.243. For KTSA, the growth estimate was < -0.25. In the case of KTSGYRRNDGEDMGGLYAGS, the growth estimate is reported as < -0.25. In the case of KTSIGYWSVVALLPDTYRPC, the growth estimate is reported as < -0.25. With KTSIRLLFRRRVDRLSGLLG the growth estimate was < -0.25. KTSSGAARCP was tested, and the growth estimate was -0.246. Substance KTTKFPSKRRFGIRWQDGAV has a growth estimate of -0.246. In the case of KTYFLSFVS, the growth estimate is reported as < -0.25. KVAIQLCISGDRKYYRVADH was tested, and the growth estimate was < -0.25. KVARYL showed a growth estimate of -0.237. With KVCSCS the growth estimate was < -0.25. For KVDCLLLLIFTCLCFISRVI, the growth estimate was < -0.25. KVG was tested, and the growth estimate was < -0.25.
